For one molecule, binding results are on record in publication PMC10712050.

Amino acid sequences for entries named in this document (tags omitted). A change or cut given only in a name is not applied to a line headed by its entry.
UniProt P03953: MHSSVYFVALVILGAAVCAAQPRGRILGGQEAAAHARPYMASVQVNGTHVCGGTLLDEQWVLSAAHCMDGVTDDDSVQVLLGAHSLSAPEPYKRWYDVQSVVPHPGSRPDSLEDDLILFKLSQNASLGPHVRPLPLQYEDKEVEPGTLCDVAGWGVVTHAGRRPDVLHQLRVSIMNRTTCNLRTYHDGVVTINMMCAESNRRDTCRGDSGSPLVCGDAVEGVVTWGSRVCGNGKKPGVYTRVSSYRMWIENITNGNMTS

This assay concerns the target GST-Adipsin fusion protein (UniProt P03953). Put plainly: affinity purification with mass spectrometry; GST-Adipsin immobilised on glutathione agarose (Pierce GST Protein Interaction Pull Down kit), prey from primary cardiomyocyte lysate, eluted complexes analysed by LC-MS/MS; only the target purified.

No constants are given. Whether binding was seen depends on the method and setting. Binding seen in cells or lysates may run through a third protein. These calls come from enrichment with a bait or labelling near it, and not all partners need be listed.

B1: interleukin-1 receptor-associated kinase-like 2 (Irak2) (protein, UniProt Q8CFA1 1-622)
chain: MACYIYQLPSWVLDDLCRNIDTLSEWDWMQFASYVITDLTQLRKIKSMERVQGVSITRELLWWWSMRQATVQQLVDLLCHLELYRAAQIVLSWKPVPESTSPLPAFPEAVKPGAVATSRRNLKDEQEKVRPVKPRSLLDTGPIMAGAQRQRPCEMDAPCSLKTDAPDSPQSKYCSTSTSAPKQERLLGLPGDRLFWSEADVVQATEDFDQSHRISEGTFADIYQGQRNGVAFAFKKLREVAGSSPGSMDRFLQAEMQLCLRCCHANVLPLLGFCTGRQFHSLIYPYMANGSLHDRLWAQGNSDMLPWPQRASICSGLLLAVEHLHSLDIIHSNVKSANVLLDQHLNPKLAHPVAHPHPDNKKTKYTVMRTHLFQASAAYLPEHFIRVGQLTKQVDIFSCGIVLAEVLTGIPAMDKDRSPVYLKDLLLSEIPNSTSSVCSRKTSMGKAVVKEICQRHVEKRAGLLPEACEEAWATAVSVCLRRRNASVEEARVSLAGVEEQLRGQLSLPWSRVSEATGSSSNTPEETDDVDNSSLSVPSLVMMASCPGAASSPLFTGHGAAQPSTSGRQEADSSSEACTGPQTPQNATETSWKIEINEAKRRLMENIVLYKEERLDSSELFGP
For B1, the binding entry is “binds”.
